Test results as given in PMC5570191.
These are yes or no findings as the source states them, for the method shown. For some of these results: Binding seen in cells or lysates may run through a third protein. Some results given as binding are weak or reduced against the parent protein; the word gives no strength. For some of these results: Sequences can lack the tags named with a protein. One block for each molecule: values may come before it.

Protein sequences, listed by entry. Tags and fused reporters are not part of them.
UniProt Q6WKZ8: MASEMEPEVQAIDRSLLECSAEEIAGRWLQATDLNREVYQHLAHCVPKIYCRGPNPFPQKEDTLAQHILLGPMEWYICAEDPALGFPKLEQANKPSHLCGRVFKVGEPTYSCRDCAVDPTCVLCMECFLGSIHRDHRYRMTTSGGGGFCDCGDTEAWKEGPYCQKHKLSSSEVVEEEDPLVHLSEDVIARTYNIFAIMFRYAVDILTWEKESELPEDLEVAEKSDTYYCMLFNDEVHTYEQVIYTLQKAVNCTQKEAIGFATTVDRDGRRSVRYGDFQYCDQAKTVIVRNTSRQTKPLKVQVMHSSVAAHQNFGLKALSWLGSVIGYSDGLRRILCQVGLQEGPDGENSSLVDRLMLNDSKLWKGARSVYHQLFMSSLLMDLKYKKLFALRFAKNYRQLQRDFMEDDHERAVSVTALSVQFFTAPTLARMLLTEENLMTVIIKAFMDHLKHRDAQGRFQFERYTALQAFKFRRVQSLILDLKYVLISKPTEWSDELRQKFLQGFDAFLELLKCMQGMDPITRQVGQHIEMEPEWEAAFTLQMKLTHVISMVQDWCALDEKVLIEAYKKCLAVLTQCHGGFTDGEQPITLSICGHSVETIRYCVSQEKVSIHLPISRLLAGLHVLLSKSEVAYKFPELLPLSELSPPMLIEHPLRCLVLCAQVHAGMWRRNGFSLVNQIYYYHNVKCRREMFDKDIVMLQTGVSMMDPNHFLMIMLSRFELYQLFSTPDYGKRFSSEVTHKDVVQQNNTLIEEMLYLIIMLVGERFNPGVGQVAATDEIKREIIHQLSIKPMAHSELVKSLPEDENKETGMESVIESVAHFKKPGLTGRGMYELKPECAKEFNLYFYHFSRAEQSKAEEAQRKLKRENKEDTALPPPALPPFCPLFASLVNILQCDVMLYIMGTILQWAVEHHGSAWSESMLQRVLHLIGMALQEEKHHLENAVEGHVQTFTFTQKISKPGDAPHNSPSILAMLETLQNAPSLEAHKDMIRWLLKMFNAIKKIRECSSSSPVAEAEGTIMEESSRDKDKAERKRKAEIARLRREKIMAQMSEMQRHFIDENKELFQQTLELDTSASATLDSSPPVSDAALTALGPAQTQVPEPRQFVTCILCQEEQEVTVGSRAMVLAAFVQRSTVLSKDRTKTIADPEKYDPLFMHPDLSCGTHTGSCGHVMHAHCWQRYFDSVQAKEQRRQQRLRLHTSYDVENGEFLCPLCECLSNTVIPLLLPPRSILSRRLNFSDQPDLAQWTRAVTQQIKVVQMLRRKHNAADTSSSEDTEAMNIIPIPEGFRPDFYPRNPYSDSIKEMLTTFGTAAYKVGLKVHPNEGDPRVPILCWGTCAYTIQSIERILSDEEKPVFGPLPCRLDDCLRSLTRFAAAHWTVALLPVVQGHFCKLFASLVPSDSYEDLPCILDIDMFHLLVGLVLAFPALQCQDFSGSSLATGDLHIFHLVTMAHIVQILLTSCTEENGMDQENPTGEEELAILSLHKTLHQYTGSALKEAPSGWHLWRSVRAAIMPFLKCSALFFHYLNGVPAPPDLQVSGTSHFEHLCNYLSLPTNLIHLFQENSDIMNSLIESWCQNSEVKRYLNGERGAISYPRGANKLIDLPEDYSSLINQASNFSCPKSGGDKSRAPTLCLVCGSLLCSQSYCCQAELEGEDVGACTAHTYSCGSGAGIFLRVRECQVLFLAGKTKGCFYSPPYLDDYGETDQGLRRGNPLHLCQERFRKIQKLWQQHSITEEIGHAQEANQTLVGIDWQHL

Tests used:
[1] = target: T1, mouse TEX19.1-YFP (stably expressed in mouse ESCs) (mouse) (UniProt Q99MV2); assay: co-IP; anti-YFP (GFP-Trap) IPs from cytoplasmic extracts of mouse ESCs stably expressing TEX19.1-YFP or YFP; Western blot of inputs, IPs and supernatants
T1 sequence: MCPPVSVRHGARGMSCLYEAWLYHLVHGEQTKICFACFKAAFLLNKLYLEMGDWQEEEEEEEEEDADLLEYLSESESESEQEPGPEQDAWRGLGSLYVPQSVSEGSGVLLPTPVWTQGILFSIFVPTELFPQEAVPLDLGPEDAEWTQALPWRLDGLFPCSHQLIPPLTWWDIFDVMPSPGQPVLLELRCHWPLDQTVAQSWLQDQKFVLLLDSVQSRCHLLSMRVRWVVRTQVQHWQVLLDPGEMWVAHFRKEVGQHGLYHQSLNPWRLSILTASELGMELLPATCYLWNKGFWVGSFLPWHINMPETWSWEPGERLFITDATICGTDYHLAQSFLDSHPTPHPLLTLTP

[2] = target: T2, mouse TEX19.1-YFP (expressed in HEK293 or HEK293T cells) (mouse) (UniProt Q99MV2); assay: co-IP; stable HEK293 lines expressing TEX19.1-YFP or YFP, transiently transfected with FLAG-UBR2; anti-YFP IP, Western blot with anti-FLAG and anti-YFP
T2 sequence: T1 sequence

[3] = target: endogenous mouse UBR2 (mouse (endogenous in mouse ESCs)) (UniProt Q6WKZ8); assay: SEC; Superdex 200 10/300 GL in BC200 buffer (25 mM HEPES pH 7.3, 200 mM NaCl); 2 mg cytoplasmic extract of mouse ESCs; fractions Western blotted
[4] = target: FLAG-UBR2 (UniProt Q6WKZ8); assay: co-IP; HEK293T transiently transfected with TEX19.1-YFP and FLAG-UBR2 or FLAG alone; anti-FLAG M2 affinity gel, 1 hr at 4°C, 10 mM Tris pH 7.5, 150 mM NaCl

- binding [1]: binds
Molecule: endogenous mouse UBR2 (from UniProt Q6WKZ8 1-1755) (enzyme)

- binding [2]: binds
Molecule: FLAG-UBR2 (from UniProt Q6WKZ8 1-1755) (enzyme)

- binding [3]: binds
B1: endogenous mouse TEX19.1 (protein, UniProt Q99MV2 1-351)
chain: T1 sequence

- binding [4]: binds
B2: mouse TEX19.1-YFP (expressed in HEK293 or HEK293T cells) (protein, UniProt Q99MV2 1-351)
chain: T1 sequence
